{
  "source": "paper PMC6868355",
  "key": {"[1]": {"target": "recombinant enolase of Sporothrix schenckii (rSsEno) (Sporothrix schenckii) (UniProt U7PSS1)", "assay": "SAXS; data not shown; rSsEno at 0.5 and 0.9 mg/mL in Tris-HCl pH 7.5, 100 mM NaCl, 2 mM beta-mercaptoethanol; Guinier analysis, extrapolated to infinite dilution; both purified"}, "[2]": {"target": "recombinant enolase of Sporothrix schenckii (rSsEno) (Sporothrix schenckii) (UniProt U7PSS1)", "assay": "SEC; analytical SEC, Superdex 200 GL 10/30, Tris-HCl pH 7.5, 100 mM NaCl, 2 mM beta-mercaptoethanol, room temperature; void marked with blue dextran; no magnesium; both purified"}},
  "note": "These are yes or no findings as the source states them, for the method shown. Some entries that bind do so weakly or less than the wild type.",
  "data": [
    {"substance": "recombinant enolase of Sporothrix schenckii (rSsEno) (from UniProt U7PSS1 1-438) (enzyme)", "values": [
      {"measurement": "binding", "setting": "[1]", "value": "binds"},
      {"measurement": "binding", "setting": "[2]", "value": "binds"}
    ]}
  ]
}
